# Results from one PubChem assay

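Malaria parasite (P. falciparum) lines kept in red blood cells; parasite DNA is measured by SYBR Green fluorescence after lysis, 72 h after compound addition. Each compound was titrated across a series from about 0.000037 to 29 µM. The number is the fitted AC50, the concentration giving a half-maximal change in signal; a lower value means higher potency, whether the curve shows a decrease or an increase. Calls follow the curve class and fit quality: every row here is inconclusive, covering signal-raising curves and weak, poorly fitted, partial or highest-dose-only inhibition curves.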

Values are in µM. Every entry below has the call inconclusive. Only part of the assay is shown, chiefly results filed as inconclusive. Potencies fitted to partial, single-point or poorly fitting curves are rough. The first word of each remark tells which way the curve ran; it can be opposite to the aim of the assay.

compound	setting	potency (µM)	curve
N#CC1(N2CCCCC2)CCCCC1	CP260	17.78	inhibitor, single point
COC(=O)C1C2CC3c4[nH]c5cc(OC)ccc5c4CCN3CC2CC(OC)C1OC (configuration not stated)	DIV30	19.01	inhibitor, partial curve, poor fit
CC[C@@]1(c2ccc(N)cc2)CCC(=O)NC1=O	W2	4.256	inhibitor, partial curve, poor fit
O=C1Nc2ccc(Cl)cc2C(c2ccccc2)=NC1O (configuration not stated)	CP215	19.01	inhibitor, single point
C[N+]1(C)[C@@H]2CC[C@H]1CC(OC(=O)[C@@H](CO)c1ccccc1)C2 (some centres not stated)	CP315	2.031	inhibitor, single point
C[N+]1(C)[C@@H]2CC[C@H]1CC(OC(=O)[C@@H](CO)c1ccccc1)C2 (some centres not stated)	CP256	4.467	inhibitor, single point
C[C@]12CCC(=O)C=C1CCC1C2C(=O)C[C@]2(C)C1CC[C@]2(O)C(=O)CO (some centres not stated)	DIV14	0.0012	activator, full curve, poor fit
CC(=O)CC(c1ccccc1)C1C(=O)Oc2ccccc2C1=O (configuration not stated)	ATS95	15.85	inhibitor, single point
CN1CCN(C2=Nc3ccccc3Oc3ccc(Cl)cc32)CC1	7G8	10	inhibitor, single point
CCOc1ccc2ccccc2c1C(=O)N[C@@H]1C(=O)N2[C@@H]1SC(C)(C)[C@@H]2C(=O)O	CP203	0.0029	activator, full curve, poor fit
CN(C)CCCOC1C(C(O)CO)OC2OC(C)(C)O[C@@H]21 (some centres not stated)	CP260	17.78	inhibitor, single point
CC(=O)N[C@@H](CCC(=O)O)C(=O)O	CP291	19.01	inhibitor, single point
Nc1ccncc1	PC26	0.0005	inhibitor
Nc1ncnc2c1ncn2[C@@H]1O[C@H](COP(=O)(O)OP(=O)(O)OP(=O)(O)O)[C@@H](O)[C@H]1O	CP266	0.0953	activator, full curve, poor fit
C[C@H](CCC(=O)O)[C@H]1CC[C@H]2[C@@H]3CC[C@@H]4C[C@H](O)CC[C@]4(C)[C@H]3C[C@H](O)[C@]12C	parasite line B	14.13	inhibitor, single point
CCOC(=O)COc1ccc2c(C)c(CCN(CC)CC)c(=O)oc2c1Cl	CP252	10	inhibitor, partial curve
C/C=C/c1ccc(O)c(OC)c1	ICS	12.59	inhibitor, single point
CC(=O)NS(=O)(=O)c1ccc(N)cc1	P93_24	3.548	inhibitor, single point
Cc1ccnc2c1NC(=O)c1cccnc1N2C1CC1	7G8	8.912	inhibitor, single point
CCCN(CCC)CCc1cccc2c1CC(=O)N2	CP335	3.013	inhibitor, single point
CCOC(=O)C(CCc1ccccc1)NC(C)C(=O)N1Cc2ccccc2CC1C(=O)O (configuration not stated)	P93_24	3.981	inhibitor, single point
CCc1ccc(CCOc2ccc(CC3SC(=O)NC3=O)cc2)nc1 (configuration not stated)	CP247	3.981	inhibitor, single point

The first 3 entries again:

* N#CC1(N2CCCCC2)CCCCC1 [CP260] | potency 17.78 µM (inhibitor, single point)
* COC(=O)C1C2CC3c4[nH]c5cc(OC)ccc5c4CCN3CC2CC(OC)C1OC (configuration not stated) [DIV30] | potency 19.01 µM (inhibitor, partial curve, poor fit)
* CC[C@@]1(c2ccc(N)cc2)CCC(=O)NC1=O [W2] | potency 4.256 µM (inhibitor, partial curve, poor fit)

The results are deposited in PubChem (AID504749; NCATS, 2011).